## Assay results

Source: PubChem BioAssay AID1224904 (Broad Institute, 2016).

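293T-iDUX4 dual-reporter cells; luminescence of the tet-on Italica luciferase control is read after 24 h.
The test concentration is not given here.
Percent change in the Italica control signal; more negative values mean stronger inhibition, which points to nonspecific, tet-on or cytotoxic effects.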

Values are in %.
Common to all entries: measured here: Italica tet-on control reporter.
This is a side read-out of the assay, for part of the compounds, not drawn at random.

Compound,activity change (%)
COc1ccc(C#Cc2ccc([C@@H]3[C@H]4CN(Cc5ccccc5F)CCCCN4[C@H]3CO)cc2)cc1,10.05
C[C@H]1CN([C@@H](C)CO)C(=O)c2c(c3ccccc3n2C)-c2ccccc2CO[C@@H]1CN(C)S(=O)(=O)c1cccc(F)c1,-26.75
O=C(c1ccccc1F)N1CC(=O)N2[C@@H](CO)[C@@H](c3ccc(C#Cc4ccccc4)cc3)[C@@H]2C1,-47.92
C/C=C/c1ccc([C@H]2[C@@H](CO)N(CC3CCCC3)C23CN(C(=O)COC)C3)cc1,-8.841
COC(=O)[C@@H]1[C@@H](CO)[C@@H]2Cn3c(ccc(C4=CCCCC4)c3=O)[C@H]1N2CC1CCCCC1,-10.08
O=C(Nc1ccc2c(c1)[C@@H]1C[C@H](CC(=O)N3CCc4ccccc4C3)O[C@@H](CO)[C@@H]1O2)NC1CCCC1,-14.35
CCCC(=O)N1CCC2(CC1)CN(C(=O)Nc1ccc(F)cc1)[C@@H](CO)c1c2c2ccc(OC)cc2n1C,1.841
C[C@H](CO)N1C[C@H](C)[C@H](CN(C)Cc2ccc(Cl)c(Cl)c2)OCc2ccccc2-c2ccccc2C1=O,-44.42
Cc1ccccc1-c1ccc([C@@H]2[C@@H](CO)N3CCCCN(CC4CC4)C[C@H]23)cc1,-10.06
O=C(C[C@H]1CC[C@H]2[C@@H](COC[C@@H](O)CN2CCC(F)(F)F)O1)N1CCC(Cc2ccccc2)CC1,-3.65
COc1cccc(-c2ccc3c(c2)[C@H]2[C@H](CCN2S(=O)(=O)c2ccccc2C)[C@H](CO)N3C)c1,-64.25
O=C(C[C@@H]1C[C@@H]2c3cc(NC(=O)c4ccc5c(c4)OCO5)ccc3O[C@@H]2[C@H](CO)O1)NCc1ccc(Oc2ccccc2)cc1,-51.22
CC(C)NC(=O)N1CC[C@@H]2[C@@H](CO)N(C)c3ccc(-c4ccc(F)cc4)cc3[C@@H]21,-36.4
COc1cccc(CN2C[C@@H]3N[C@H](C2)C3c2ccc(-c3cccc(C#N)c3)cc2)c1 (some centres undefined),-34.72
O=C(C[C@H]1CC[C@H]2[C@@H](COC[C@@H](O)CN2Cc2ccc(Oc3ccccc3)cc2)O1)N1CCN(c2ccccc2)CC1,-61.7
N#Cc1cccc(-c2ccc3c(c2)[C@@H]2[C@@H](CCN2C(=O)c2ccccc2F)[C@@H](CO)N3)c1,-27.63
CC(=O)N1CCCCN2[C@H](CO)[C@H](c3ccc(-c4cccc(C)c4)cc3)[C@@H]2C1,-64.56
Cc1ccccc1-c1ccc(C2[C@H]3CNC[C@@H]2N3Cc2ccc3c(c2)OCO3)cc1 (some centres undefined),-10.56
C[C@@H]1CN([C@@H](C)CO)C(=O)c2c(c3ccccc3n2C)-c2ccccc2CO[C@H]1CN(C)S(=O)(=O)c1cccc(C#N)c1,0.869
N#C[C@@H]1[C@@H](c2ccccc2C2=CCCCC2)[C@@H](CO)N1C(=O)NC1CCCC1,-5.932
O=C(C[C@H]1CC[C@H]2[C@@H](COC[C@@H](O)CN2Cc2ccc(Oc3ccccc3)cc2)O1)N1CCCCC1,-31.57
C[C@@H]1CN([C@@H](C)CO)C(=O)CCCn2nncc2CO[C@@H]1CN(C)Cc1ccccc1C(F)(F)F,-9.012
O=C(C[C@@H]1CC[C@H]2[C@@H](COC[C@H](O)CN2Cc2cccc(C(F)(F)F)c2)O1)NCc1ccc(Cl)cc1,-49.05
CCCNC(=O)N1CC(=O)N2[C@H](CO)[C@@H](c3ccc(C#Cc4cccc(OC)c4)cc3)[C@@H]2C1,-10.93
Cc1ccc(-c2ccccc2[C@@H]2[C@@H](CO)N(C(=O)NC3CCCC3)[C@H]2C#N)cc1,-33.04
CC(=O)N1CCCCN2[C@H](C1)[C@H](c1ccc(-c3cccc(C)c3)cc1)[C@@H]2CO,0.8598
COc1ccccc1S(=O)(=O)N1CC[C@@H]2[C@@H](CO)N(C)c3ccc(-c4ccc(F)cc4)cc3[C@@H]21,-47.35
O=C(c1cccnc1)N1CCCCN2[C@H](C1)[C@H](c1ccc(C#Cc3cccnc3)cc1)[C@@H]2CO,-0.3395
O=C(C1CCC1)N1CC2(C1)[C@H](c1ccccc1)[C@H](CO)N2CC1CCCC1,0.8655
O=C(CC1CC1)N1CC2(C1)[C@H](c1ccccc1)[C@@H](CO)N2Cc1cccc(F)c1,-1.331
O=S(=O)(c1ccc(F)cc1)N1CCCCN2[C@H](C1)[C@H](c1ccc(C#CC3CC3)cc1)[C@@H]2CO,-14.27
COc1cccc(S(=O)(=O)N2CCCCN3[C@H](CO)[C@H](c4ccc(C#CC5CC5)cc4)[C@H]3C2)c1,-16.24
COCC(=O)N1CCC2(CC1)CN(Cc1ccccc1Cl)[C@@H](CO)c1[nH]c3cc(OC)ccc3c12,-26.33
COc1ccc2c3c(n(C)c2c1)[C@@H](CO)N(CC1CC1)CC31CN(S(=O)(=O)c2cccs2)C1,-18.86
COc1cccc(C(=O)Nc2ccc3c(c2)OC[C@H](C)N(CCc2ccccc2)C[C@@H](C)[C@@H](OC)CN(C)C3=O)c1,-6.324
O=C(Nc1ccc2c(c1)[C@H]1C[C@@H](CC(=O)N3CCc4ccccc4C3)O[C@H](CO)[C@H]1O2)Nc1ccccc1F,-48.09
COc1ccc2c3c(n(C)c2c1)[C@@H](CO)N(CC1CC1)CC31CCN(C(=O)c2ccc(F)cc2)CC1,-11.44
N#C[C@H]1[C@H](c2ccccc2C2=CCCCC2)[C@@H](CO)N1C(=O)NC1CCCC1,-42.7
O=C(C[C@@H]1C[C@@H]2c3cc(NC(=O)c4ccc5c(c4)OCO5)ccc3O[C@@H]2[C@@H](CO)O1)NCc1cccc(F)c1,-8.604
Cc1cccc(-c2ccc([C@H]3[C@@H](CO)N4C(=O)CN(C(=O)c5ccc6c(c5)OCO6)C[C@@H]34)cc2)c1,-6.023
CC(C)CC#Cc1ccc([C@@H]2[C@@H](CO)N3CCCCN(S(=O)(=O)c4ccc(F)cc4)C[C@@H]23)cc1,0.5614
COc1ccc2c3c(n(C)c2c1)[C@@H](CO)N(Cc1ccc(Cl)cc1)CC31CCN(CC2CC2)CC1,-80.39
Cc1ccccc1S(=O)(=O)N1CC(=O)N2[C@@H](CO)[C@@H](c3ccc(C#CC4CC4)cc3)[C@@H]2C1,-15.97
O=S(=O)(c1ccccc1)N1C[C@@H]2N[C@H](C1)C2c1ccc(-c2ccc(F)cc2)cc1 (some centres undefined),-5.053
CO[C@H]1CN(C)C(=O)c2cc(NS(=O)(=O)c3cccc(F)c3)ccc2OC[C@H](C)N(Cc2cc(F)ccc2F)C[C@@H]1C,-23.41
O=C(Cc1cccnc1)N1CCCCN2[C@H](CO)[C@@H](c3ccc(C#CC4CCCC4)cc3)[C@H]2C1,-17.67
O=C(C[C@@H]1C=C[C@@H](NC(=O)c2cnccn2)[C@H](CO)O1)NCc1ccccc1F,3.632
Cc1ccccc1S(=O)(=O)N1CC[C@@H]2[C@H](CO)Nc3ccc(-c4ccc(F)cc4)cc3[C@@H]21,-11.23
COC(=O)C[C@@H]1C[C@@H]2c3cc(NC(=O)Nc4ccc(C(F)(F)F)cc4)ccc3O[C@@H]2[C@@H](CO)O1,-29.46
COc1cccc(-c2ccc3c(c2)[C@@H]2[C@@H](CCN2S(=O)(=O)c2ccccc2OC)[C@H](CO)N3C)c1,-74.36
COc1ccc2c3c([nH]c2c1)[C@@H](CO)N(CC1CC1)CC31CCN(C(=O)c2ccccc2F)CC1,-14.66
COc1ccc(C#Cc2ccc([C@H]3[C@@H](CO)N4CCCCN(C(=O)Nc5ccccc5F)C[C@@H]34)cc2)cc1,-1.115
O=C(C[C@@H]1C[C@H]2c3cc(NC(=O)Nc4ccc(C(F)(F)F)cc4)ccc3O[C@H]2[C@H](CO)O1)NCc1cccnc1,-1.534
Cc1ccccc1S(=O)(=O)N1CC(=O)N2[C@@H](CO)[C@@H](c3ccc(C#CCC4CCCC4)cc3)[C@@H]2C1,-5.413
O=C(Cc1ccccc1)N1CC2(C1)[C@H](c1ccccc1)[C@H](CO)N2Cc1cccc(Cl)c1,-29.32
O=S(=O)(c1ccc(F)cc1)N1CCCCN2[C@H](CO)[C@@H](c3ccc(C#CC4CC4)cc3)[C@H]2C1,-10.23
COc1cc(CN2CC3(CCN(S(=O)(=O)c4cccs4)CC3)c3c(n(C)c4cc(OC)ccc34)[C@H]2CO)cc(OC)c1,-27.62

The first 7 entries again:

COc1ccc(C#Cc2ccc([C@@H]3[C@H]4CN(Cc5ccccc5F)CCCCN4[C@H]3CO)cc2)cc1 gave activity change 10.05%.
C[C@H]1CN([C@@H](C)CO)C(=O)c2c(c3ccccc3n2C)-c2ccccc2CO[C@@H]1CN(C)S(=O)(=O)c1cccc(F)c1 gave activity change -26.75%.
O=C(c1ccccc1F)N1CC(=O)N2[C@@H](CO)[C@@H](c3ccc(C#Cc4ccccc4)cc3)[C@@H]2C1 gave activity change -47.92%.
C/C=C/c1ccc([C@H]2[C@@H](CO)N(CC3CCCC3)C23CN(C(=O)COC)C3)cc1 gave activity change -8.841%.
COC(=O)[C@@H]1[C@@H](CO)[C@@H]2Cn3c(ccc(C4=CCCCC4)c3=O)[C@H]1N2CC1CCCCC1 gave activity change -10.08%.
O=C(Nc1ccc2c(c1)[C@@H]1C[C@H](CC(=O)N3CCc4ccccc4C3)O[C@@H](CO)[C@@H]1O2)NC1CCCC1 gave activity change -14.35%.
CCCC(=O)N1CCC2(CC1)CN(C(=O)Nc1ccc(F)cc1)[C@@H](CO)c1c2c2ccc(OC)cc2n1C gave activity change 1.841%.